Reference: PubChem BioAssay AID2517 (National Center for Advancing Translational Sciences (NCATS), 2010)
Several values for one entry are separate records, joined by “and”; a condition that tells them apart may be missing. Identical values can stand only once. Screen size: about 350,000 compounds; about 1,200 (0.34%) were called active. Inconclusive means that the source gave no clear call. Such entries were picked first, then a sample of the others. The call rests on the fitted dose curve; in most records, active means well fitted inhibition curve with a large enough effect; inconclusive means small, poorly fitted or top-dose-only effect; inactive means no such curve, though single readings can be large or run the other way. A potency beside an inconclusive call is a rough fit, not a confirmed value.

Sequences of proteins named here, by UniProt entry; tags and fusion partners are left off.
UniProt P27695, whole entry, looked up: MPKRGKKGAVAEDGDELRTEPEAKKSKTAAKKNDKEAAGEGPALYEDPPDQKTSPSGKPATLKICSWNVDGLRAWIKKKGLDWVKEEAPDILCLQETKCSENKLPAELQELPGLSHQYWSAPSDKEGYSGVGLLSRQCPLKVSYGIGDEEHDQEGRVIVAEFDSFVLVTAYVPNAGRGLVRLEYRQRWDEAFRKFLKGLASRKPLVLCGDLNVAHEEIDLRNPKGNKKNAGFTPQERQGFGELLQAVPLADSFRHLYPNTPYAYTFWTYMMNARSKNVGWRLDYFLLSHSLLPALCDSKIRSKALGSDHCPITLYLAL

The compounds below were run against DNA repair nuclease/redox regulator APEX1 (Homo sapiens) (UniProt P27695) (assay: qHTS Assay for Inhibitors of the Human Apurinic/apyrimidinic Endonuclease 1 (APE1)). Conditions: recombinant APE1, TAMRA/BHQ-2 abasic DNA cleavage fluorescence; series mostly up to 65.8 µM.
Method in brief: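 Endonuclease cleavage of a quenched abasic-site DNA duplex (50 nM) by APE1 (0.75 nM) was tracked by TAMRA dequenching. Compounds were preincubated with enzyme 15 min at room temperature; data normalized to buffer-only and DMSO wells plus NSC13755 control.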
Further: nearly all actives have a fitted effect of over 55% in size.
Potency means the concentration at half of the fitted maximal effect.

Row | SMILES | Potency
1 | N#CC(C#N)=NNc1ccc(OC(F)(F)F)cc1 | inconclusive: 20 µM [inhibitor, partial curve] and inconclusive: 17.8 µM [inhibitor, partial curve] and inconclusive: 31.6 µM [inhibitor, partial curve]
2 | CCOc1cncc(/C=C/CCNC)c1 | inactive
3 | CC(=O)O[C@H]1C(=O)[C@@]2(C)C([C@H](OC(=O)c3ccccc3)[C@]3(O)C[C@H](OC(=O)[C@H](O)[C@@H](NC(=O)c4ccccc4)c4ccccc4)C(C)=C1C3(C)C)[C@]1(OC(C)=O)CO[C@@H]1C[C@@H]2OC(=O)[C@H](C)NC(=O)c1ccc(-c2c3ccc(=O)cc-3oc3cc(O)ccc23)c(C(=O)O)c1 (stereo partly drawn) | active: 3.16 µM
4 | O=C1NC(=O)N(Cc2ccccc2)C(=O)/C1=C\C=C\c1ccco1 | inconclusive: 25.1 µM [inhibitor, single point]
5 | C=CCn1c(CSc2ccccc2[N+](=O)[O-])n[nH]c1=S | inconclusive: 16.8 µM [inhibitor, partial curve]
6 | N#C/C(=C\c1ccc(O)c(O)c1)C(N)=S | active: 2.82 µM and active: 12.6 µM
7 | Cc1ccc(C2NC(=S)NC(c3ccc(C)cc3)C23C(=O)NC(=O)NC3=O)cc1 (stereo not drawn) | inactive
8 | O=C1NC(=O)N(c2cccc(Cl)c2)C(=O)/C1=C\c1ccc(Sc2nc3ccccc3[nH]2)o1 | inconclusive: 25.1 µM [inhibitor, single point]
9 | COCCOC(=O)c1c(N)n(Cc2ccco2)c2nc3ccccc3nc12 | inconclusive: 11.2 µM [inhibitor, partial curve]
10 | CCCNC(=O)Cn1cnc2sc(C(=O)N3CCC4(CC3)OCCO4)c(C)c2c1=O | inactive
11 | CC(Cl)Cl | inactive
12 | O=C1NC(=O)N(Cc2ccco2)C(=O)/C1=C\c1ccc(-c2ccc(F)cc2)o1 | inconclusive: 31.6 µM [inhibitor, single point]
13 | C[C@H]1OC[C@@H](C[N+](C)(C)C)O1 | inactive
14 | O=C(c1cccs1)c1cn(Cc2ccccc2Cl)c2ccccc12 | inactive
15 | O=C(NC1(C(F)(F)F)Oc2ccccc2O1)N1CCC2(CC1)OCCO2 | inconclusive: 12.6 µM [inhibitor, partial curve]
16 | Oc1cn2c(n1)Nc1ccc(Cl)c(Cl)c1C2 | inconclusive: 1 µM [inhibitor, full curve, poor fit]
17 | Cc1ccc(N2C(=O)NC(=O)/C(=C/c3cnc(-c4ccccc4)nc3)C2=O)cc1C | inactive
18 | O=c1oc2ccccc2c(O)c1C(c1ccccn1)c1c(O)c2ccccc2oc1=O | inconclusive: 3.98 µM [inhibitor, single point]
